Compound in this assay: [O-][N+](C(C1=C(C(O)=C2)NC(C(C=C3)=CC=C3Cl)C4C1C=CC4)=C2Cl)=O
Nature of the assay: melting temperature shift (compound 7 minus DMSO); higher = compound stabilises the protein. To be noted: 10 µM. The protocol: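 Thermal proteome profiling (TMT mass spectrometry) in intact DAOY medulloblastoma cells or DAOY lysates treated with 10 µM compound 7 or DMSO, heated at 10 temperatures from 40.5 to 73.8 °C for 3 min. Melting curves were fitted with the Bioconductor TPP package, and the melting point difference between compound and vehicle is reported per protein (single curve per condition).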

Chains of the proteins cited; added tags and fusions are not shown. Lines headed by an entry give the natural chain unless they say otherwise; changes in a name come on top.
UniProt Q9UHX1: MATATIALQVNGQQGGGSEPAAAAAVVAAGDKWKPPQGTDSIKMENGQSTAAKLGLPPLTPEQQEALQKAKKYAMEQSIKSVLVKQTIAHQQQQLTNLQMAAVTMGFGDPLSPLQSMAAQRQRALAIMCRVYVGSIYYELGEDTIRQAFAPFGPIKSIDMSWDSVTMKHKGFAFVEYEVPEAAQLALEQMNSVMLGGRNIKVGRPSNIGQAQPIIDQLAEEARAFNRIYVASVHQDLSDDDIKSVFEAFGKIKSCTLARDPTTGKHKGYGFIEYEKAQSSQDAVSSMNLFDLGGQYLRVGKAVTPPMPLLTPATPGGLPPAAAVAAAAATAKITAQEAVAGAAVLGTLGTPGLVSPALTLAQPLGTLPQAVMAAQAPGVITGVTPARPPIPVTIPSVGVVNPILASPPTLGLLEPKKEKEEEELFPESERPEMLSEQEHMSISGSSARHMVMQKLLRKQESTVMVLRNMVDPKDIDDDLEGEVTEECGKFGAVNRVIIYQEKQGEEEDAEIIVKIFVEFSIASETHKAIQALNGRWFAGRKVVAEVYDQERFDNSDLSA
UniProt O94985: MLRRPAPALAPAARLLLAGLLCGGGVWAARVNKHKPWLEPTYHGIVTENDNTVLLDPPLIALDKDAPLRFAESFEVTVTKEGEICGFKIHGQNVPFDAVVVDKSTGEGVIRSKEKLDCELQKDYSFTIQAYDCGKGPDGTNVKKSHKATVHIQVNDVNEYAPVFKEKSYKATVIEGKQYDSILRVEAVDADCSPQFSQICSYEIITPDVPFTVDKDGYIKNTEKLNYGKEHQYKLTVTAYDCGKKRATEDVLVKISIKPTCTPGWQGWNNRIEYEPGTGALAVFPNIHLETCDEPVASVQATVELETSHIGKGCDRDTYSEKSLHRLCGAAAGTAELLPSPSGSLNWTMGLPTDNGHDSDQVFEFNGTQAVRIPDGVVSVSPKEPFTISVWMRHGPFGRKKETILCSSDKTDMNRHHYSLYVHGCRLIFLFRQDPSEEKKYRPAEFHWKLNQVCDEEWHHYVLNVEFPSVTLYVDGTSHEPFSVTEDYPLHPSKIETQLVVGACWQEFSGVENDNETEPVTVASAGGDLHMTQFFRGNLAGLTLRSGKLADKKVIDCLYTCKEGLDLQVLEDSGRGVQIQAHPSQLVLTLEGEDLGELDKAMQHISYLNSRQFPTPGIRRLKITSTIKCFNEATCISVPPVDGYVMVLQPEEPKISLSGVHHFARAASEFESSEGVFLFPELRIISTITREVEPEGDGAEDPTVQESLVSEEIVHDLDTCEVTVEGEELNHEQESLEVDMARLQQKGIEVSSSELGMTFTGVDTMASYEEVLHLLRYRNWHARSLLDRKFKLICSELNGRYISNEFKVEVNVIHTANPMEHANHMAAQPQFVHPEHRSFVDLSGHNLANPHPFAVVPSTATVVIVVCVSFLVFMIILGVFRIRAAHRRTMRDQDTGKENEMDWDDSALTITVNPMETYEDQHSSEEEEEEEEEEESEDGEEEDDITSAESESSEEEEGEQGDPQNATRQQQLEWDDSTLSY
UniProt Q9NRG0: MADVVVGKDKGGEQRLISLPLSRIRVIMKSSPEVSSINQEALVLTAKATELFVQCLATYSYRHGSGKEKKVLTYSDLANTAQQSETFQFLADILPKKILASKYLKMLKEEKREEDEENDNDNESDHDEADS
UniProt Q9UNQ2: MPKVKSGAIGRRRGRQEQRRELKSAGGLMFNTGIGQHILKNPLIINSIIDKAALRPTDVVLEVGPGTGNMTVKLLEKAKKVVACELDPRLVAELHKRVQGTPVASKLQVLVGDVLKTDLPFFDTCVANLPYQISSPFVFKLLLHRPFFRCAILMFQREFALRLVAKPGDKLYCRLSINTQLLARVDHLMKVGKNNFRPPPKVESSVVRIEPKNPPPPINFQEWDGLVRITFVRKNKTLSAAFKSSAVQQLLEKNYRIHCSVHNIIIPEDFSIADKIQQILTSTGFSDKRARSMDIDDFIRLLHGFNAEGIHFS
UniProt P43007: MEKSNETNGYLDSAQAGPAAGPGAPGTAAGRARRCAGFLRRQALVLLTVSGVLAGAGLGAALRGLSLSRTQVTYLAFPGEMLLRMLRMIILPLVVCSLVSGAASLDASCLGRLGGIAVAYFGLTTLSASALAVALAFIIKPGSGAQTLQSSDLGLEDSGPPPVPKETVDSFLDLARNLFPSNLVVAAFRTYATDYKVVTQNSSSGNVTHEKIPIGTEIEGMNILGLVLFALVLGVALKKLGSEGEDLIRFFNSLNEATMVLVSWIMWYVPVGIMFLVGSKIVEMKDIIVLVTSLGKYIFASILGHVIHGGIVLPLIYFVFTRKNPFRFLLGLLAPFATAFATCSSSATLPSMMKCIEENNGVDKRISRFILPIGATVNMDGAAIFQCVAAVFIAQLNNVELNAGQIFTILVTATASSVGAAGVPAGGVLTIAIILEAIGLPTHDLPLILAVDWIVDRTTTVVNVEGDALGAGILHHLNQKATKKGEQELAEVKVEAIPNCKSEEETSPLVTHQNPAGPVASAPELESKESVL
UniProt Q07666, whole entry: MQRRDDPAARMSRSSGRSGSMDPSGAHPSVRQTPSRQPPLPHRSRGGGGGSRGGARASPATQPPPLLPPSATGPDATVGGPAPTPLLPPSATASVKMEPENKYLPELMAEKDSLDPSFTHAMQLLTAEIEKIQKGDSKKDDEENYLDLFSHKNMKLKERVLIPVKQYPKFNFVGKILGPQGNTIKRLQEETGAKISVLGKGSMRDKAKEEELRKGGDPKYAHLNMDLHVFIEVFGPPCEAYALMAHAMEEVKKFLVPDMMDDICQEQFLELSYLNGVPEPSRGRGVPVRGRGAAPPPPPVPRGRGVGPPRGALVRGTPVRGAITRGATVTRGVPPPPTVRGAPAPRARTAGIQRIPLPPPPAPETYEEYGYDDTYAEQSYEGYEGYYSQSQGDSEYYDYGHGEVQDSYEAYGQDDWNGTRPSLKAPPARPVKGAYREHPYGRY
UniProt Q5SRD1: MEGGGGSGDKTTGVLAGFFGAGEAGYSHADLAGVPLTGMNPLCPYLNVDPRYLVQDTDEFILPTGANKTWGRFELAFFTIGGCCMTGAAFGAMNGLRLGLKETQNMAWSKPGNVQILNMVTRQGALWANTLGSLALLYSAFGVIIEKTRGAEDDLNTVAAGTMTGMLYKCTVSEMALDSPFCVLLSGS
UniProt P36873, whole entry, looked up: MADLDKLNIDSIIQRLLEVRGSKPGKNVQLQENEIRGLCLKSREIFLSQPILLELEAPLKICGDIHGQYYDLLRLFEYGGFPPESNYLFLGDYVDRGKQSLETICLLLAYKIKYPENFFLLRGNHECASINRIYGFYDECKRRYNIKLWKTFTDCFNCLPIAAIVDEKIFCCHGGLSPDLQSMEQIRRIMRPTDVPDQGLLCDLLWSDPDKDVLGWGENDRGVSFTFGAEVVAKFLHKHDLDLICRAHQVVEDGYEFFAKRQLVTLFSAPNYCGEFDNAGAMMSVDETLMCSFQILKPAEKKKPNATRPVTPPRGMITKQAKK
UniProt Q8N8A2: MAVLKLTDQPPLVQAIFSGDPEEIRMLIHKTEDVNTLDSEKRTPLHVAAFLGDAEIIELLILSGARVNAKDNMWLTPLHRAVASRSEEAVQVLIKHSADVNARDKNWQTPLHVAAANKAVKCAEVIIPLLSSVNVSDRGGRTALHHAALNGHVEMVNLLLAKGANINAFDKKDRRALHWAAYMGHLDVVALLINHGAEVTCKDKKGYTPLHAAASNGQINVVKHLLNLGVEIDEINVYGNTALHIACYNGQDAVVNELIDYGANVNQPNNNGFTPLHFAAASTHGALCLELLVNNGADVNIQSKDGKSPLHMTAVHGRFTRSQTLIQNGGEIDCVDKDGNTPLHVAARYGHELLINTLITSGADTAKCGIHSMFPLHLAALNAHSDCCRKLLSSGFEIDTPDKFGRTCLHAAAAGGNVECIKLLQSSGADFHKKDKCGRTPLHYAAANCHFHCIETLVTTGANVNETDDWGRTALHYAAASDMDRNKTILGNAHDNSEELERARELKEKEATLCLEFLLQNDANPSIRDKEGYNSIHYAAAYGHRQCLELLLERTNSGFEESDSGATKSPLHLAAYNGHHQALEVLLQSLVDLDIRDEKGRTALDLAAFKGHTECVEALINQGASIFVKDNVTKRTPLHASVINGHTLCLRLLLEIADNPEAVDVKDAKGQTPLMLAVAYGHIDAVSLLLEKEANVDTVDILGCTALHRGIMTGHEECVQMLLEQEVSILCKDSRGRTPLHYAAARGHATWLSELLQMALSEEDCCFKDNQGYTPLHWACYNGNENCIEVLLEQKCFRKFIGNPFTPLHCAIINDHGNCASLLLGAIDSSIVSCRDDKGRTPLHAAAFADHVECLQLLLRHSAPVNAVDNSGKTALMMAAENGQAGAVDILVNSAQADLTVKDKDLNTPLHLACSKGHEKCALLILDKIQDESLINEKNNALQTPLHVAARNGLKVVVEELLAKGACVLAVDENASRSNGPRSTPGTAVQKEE
UniProt Q9C0E2: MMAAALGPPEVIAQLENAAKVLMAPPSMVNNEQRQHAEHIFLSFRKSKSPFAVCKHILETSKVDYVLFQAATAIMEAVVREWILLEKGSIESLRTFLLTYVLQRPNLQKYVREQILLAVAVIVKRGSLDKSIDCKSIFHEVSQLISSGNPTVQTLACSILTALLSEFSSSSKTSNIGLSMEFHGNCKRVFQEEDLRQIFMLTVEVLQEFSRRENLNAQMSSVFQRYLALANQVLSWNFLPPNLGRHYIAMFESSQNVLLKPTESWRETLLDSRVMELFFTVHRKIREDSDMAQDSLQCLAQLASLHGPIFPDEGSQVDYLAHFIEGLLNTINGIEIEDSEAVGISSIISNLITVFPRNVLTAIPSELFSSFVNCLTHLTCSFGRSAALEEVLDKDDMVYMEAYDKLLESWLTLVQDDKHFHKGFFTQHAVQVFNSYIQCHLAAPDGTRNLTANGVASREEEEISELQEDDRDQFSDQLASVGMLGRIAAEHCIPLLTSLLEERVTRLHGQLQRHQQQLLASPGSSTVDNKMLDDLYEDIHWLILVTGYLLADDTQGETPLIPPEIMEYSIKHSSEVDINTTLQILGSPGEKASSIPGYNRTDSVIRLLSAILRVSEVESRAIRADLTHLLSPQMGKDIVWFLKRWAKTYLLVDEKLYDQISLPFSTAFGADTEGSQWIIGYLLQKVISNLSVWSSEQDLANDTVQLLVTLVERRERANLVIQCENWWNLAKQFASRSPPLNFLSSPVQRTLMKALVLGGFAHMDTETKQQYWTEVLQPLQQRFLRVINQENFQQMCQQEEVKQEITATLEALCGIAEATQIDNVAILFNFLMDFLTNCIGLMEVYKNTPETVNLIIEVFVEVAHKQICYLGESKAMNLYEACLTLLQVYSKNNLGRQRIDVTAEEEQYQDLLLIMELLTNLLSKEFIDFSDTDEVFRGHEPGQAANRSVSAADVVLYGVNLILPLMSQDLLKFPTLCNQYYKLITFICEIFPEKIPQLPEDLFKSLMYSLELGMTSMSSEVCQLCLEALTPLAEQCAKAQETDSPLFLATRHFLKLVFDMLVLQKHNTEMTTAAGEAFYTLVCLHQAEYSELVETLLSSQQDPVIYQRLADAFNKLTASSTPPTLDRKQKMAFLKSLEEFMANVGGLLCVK
UniProt Q09013: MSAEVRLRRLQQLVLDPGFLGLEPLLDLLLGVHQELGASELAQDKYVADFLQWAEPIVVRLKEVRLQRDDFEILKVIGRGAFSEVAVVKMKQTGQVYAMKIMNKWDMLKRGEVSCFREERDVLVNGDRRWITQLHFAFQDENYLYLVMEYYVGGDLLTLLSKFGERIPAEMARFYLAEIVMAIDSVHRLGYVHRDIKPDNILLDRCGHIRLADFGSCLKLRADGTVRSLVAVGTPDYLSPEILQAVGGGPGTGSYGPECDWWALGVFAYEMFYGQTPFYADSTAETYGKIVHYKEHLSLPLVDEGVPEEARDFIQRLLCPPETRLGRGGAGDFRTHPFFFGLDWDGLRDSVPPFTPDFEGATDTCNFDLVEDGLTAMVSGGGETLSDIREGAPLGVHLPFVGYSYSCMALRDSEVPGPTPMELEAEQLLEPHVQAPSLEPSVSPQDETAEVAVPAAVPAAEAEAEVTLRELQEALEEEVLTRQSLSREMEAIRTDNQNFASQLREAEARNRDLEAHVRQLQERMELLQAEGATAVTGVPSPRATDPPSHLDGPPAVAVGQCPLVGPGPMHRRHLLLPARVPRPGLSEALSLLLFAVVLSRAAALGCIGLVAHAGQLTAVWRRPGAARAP
UniProt P54826: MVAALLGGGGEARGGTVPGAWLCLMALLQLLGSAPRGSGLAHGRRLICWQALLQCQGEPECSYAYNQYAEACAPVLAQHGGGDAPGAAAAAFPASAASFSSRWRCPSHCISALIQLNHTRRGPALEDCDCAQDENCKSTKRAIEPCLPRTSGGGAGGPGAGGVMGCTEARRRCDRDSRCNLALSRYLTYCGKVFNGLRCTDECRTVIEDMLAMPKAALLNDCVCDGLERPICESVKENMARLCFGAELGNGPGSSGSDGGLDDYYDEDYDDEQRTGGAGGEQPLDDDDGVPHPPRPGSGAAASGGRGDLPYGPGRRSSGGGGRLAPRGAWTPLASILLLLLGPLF

The mark [1] stands for this setting: system: DAOY cell lysate, treatment time: 20 min, 4 °C.
Setting [2] is: system: intact DAOY cells, treatment time: 90 min, 37 °C.

Many values rest on one well or one pass, so single values are uncertain.

As to RFC4 (UniProt P35249), the melting temperature shift under setting [1] is -0.363 °C and the melting temperature shift under setting [2] is -1.19 °C.

With UniProt Q9P0S2, the melting temperature shift runs as follows: under setting [1], -0.188 °C; under setting [2], -0.372 °C.

Turning to UniProt Q8TBF2, the melting temperature shift under setting [1] was -0.306 °C. For the target DHRS7B (UniProt Q6IAN0), the melting temperature shift came out at 1.01 °C under setting [1] and 0.0274 °C under setting [2]. On the same counts, the results for PUF60 (UniProt Q9UHX1) are -0.115 °C and -0.875 °C. Taken in the same sequence, the figures for LRPPRC (UniProt P42704) were 0.242 °C and -0.751 °C.

Consider UniProt Q5VTU8, for which, under setting [2], the melting temperature shift is -1.25 °C. With AUP1 (UniProt Q9Y679), the melting temperature shift runs as follows: under setting [1], 1.47 °C; under setting [2], -1.29 °C. CLSTN1 (UniProt O94985): under setting [1], the melting temperature shift was 0.973 °C.

With LONP2 (UniProt Q86WA8), the melting temperature shift reads like this: under setting [1], 0.919 °C; under setting [2], 1.6 °C. With UniProt A6NHL2, the melting temperature shift under setting [2] was determined as 0.435 °C.

With ALDH1A3 (UniProt P47895), the melting temperature shift reads like this: under setting [1], -0.0297 °C; under setting [2], -0.913 °C.

In the case of HSPA4 (UniProt P34932), the melting temperature shift runs as follows: under setting [1], -0.16 °C; under setting [2], 0.542 °C. In the case of UniProt O60287, the melting temperature shift under setting [1] is -0.382 °C. Same read-out and setting: under CHRAC1 (UniProt Q9NRG0) stands -0.192 °C. Turning to TDP1 (UniProt Q9NUW8), the melting temperature shift under setting [1] was -0.0819 °C and the melting temperature shift under setting [2] is -0.542 °C. Taken in the same sequence, the figures for RPL37A (UniProt P61513) were 0.609 °C and -0.0987 °C. Taken in the same sequence, the figures for U2SURP (UniProt O15042) were 0.0278 °C and -0.604 °C.

On to DIMT1 (UniProt Q9UNQ2), for which the melting temperature shift under setting [1] stood at 0.263 °C and the melting temperature shift under setting [2] was -0.842 °C. With SLC1A4 (UniProt P43007), under setting [1], the melting temperature shift is -0.234 °C. Regarding POGZ (UniProt Q7Z3K3), the melting temperature shift runs as follows: under setting [1], 1.43 °C; under setting [2], -1.75 °C.

As for CSTB (UniProt P04080), the melting temperature shift by setting is: under setting [1], -2.26 °C; under setting [2], -0.213 °C. Taken in the same sequence, the figures for KHDRBS1 (UniProt Q07666) were 1.04 °C and 0.249 °C.

As to UniProt Q9H496, the melting temperature shift under setting [1] is -0.203 °C. As to PSMA7 (UniProt O14818), the melting temperature shift was determined as 0.243 °C under setting [1] and 0.066 °C under setting [2].

For the target GSR (UniProt P00390), the melting temperature shift runs as follows: under setting [1], -0.81 °C; under setting [2], 1.55 °C. In the case of ABI1 (UniProt Q8IZP0), the melting temperature shift reads like this: under setting [1], -0.404 °C; under setting [2], 0.341 °C. Taken in the same sequence, the figures for MRPL21 (UniProt Q7Z2W9) were 2.96 °C and -0.66 °C. In the case of ANKRD13A (UniProt Q8IZ07), the melting temperature shift under setting [1] is -0.188 °C and the melting temperature shift under setting [2] is 0.341 °C. On the same counts, the results for CXORF38 (UniProt Q8TB03) are -0.665 °C and -0.282 °C. On the same counts, the results for RNF219 (UniProt Q5W0B1) are -0.12 °C and -4.94 °C. On the same counts, the results for PIN4 (UniProt Q9Y237) are 0.282 °C and -0.701 °C. Take UniProt Q5W0U4: under setting [2], the melting temperature shift is -0.72 °C. For the target RFC5 (UniProt P40937), the melting temperature shift reads like this: under setting [1], -0.421 °C; under setting [2], -1.81 °C. Turning to UniProt Q86SG3, the melting temperature shift under setting [1] is -0.339 °C. Consider UniProt O75356, for which the melting temperature shift under setting [1] amounted to 0.621 °C. For the target MRPL44 (UniProt Q9H9J2), the melting temperature shift is, setting by setting: under setting [1], 1 °C; under setting [2], -0.614 °C. Taken in the same sequence, the figures for FLNC (UniProt Q14315) were -1.16 °C and 0.137 °C. THTPA (UniProt Q9BU02): the melting temperature shift under setting [1] was -0.261 °C. UniProt L0R6Q1: the melting temperature shift under setting [1] worked out at 4.86 °C and the melting temperature shift under setting [2] stood at 1.6 °C. On the same counts, the results for GADD45GIP1 (UniProt Q8TAE8) are -1.25 °C and -2.36 °C. On the same counts, the results for ATP6AP1 (UniProt Q15904) are 0.252 °C and 0.345 °C. Take SCFD2 (UniProt Q8WU76): under setting [1], the melting temperature shift is 1.43 °C. For HCFC1 (UniProt P51610), the melting temperature shift runs as follows: under setting [1], -0.455 °C; under setting [2], -0.62 °C. Consider UniProt Q5SRD1, for which the melting temperature shift under setting [2] is -2.64 °C. Consider PPP1CC (UniProt P36873), for which the melting temperature shift reads like this: under setting [1], 1.13 °C; under setting [2], -0.649 °C. On the same counts, the results for ANKRD44 (UniProt Q8N8A2) are -1.09 °C and -0.0689 °C. Taken in the same sequence, the figures for XPO4 (UniProt Q9C0E2) were -0.612 °C and -1.01 °C. Regarding IWS1 (UniProt Q96ST2), the melting temperature shift is -1.24 °C under setting [1] and -0.879 °C under setting [2]. With GPALPP1 (UniProt Q8IXQ4), the melting temperature shift under setting [1] worked out at 6.83 °C. As for DMPK (UniProt Q09013), the melting temperature shift under setting [2] came out at 1.39 °C.

Regarding C9ORF40 (UniProt Q8IXQ3), under setting [1], the melting temperature shift was found to be 2.97 °C.

On to AIDA (UniProt Q96BJ3), for which the melting temperature shift was 0.751 °C under setting [1] and -0.163 °C under setting [2].

Take CDK2AP1 (UniProt O14519): the melting temperature shift under setting [1] was found to be 3.9 °C. For the target EIF2D (UniProt P41214), the melting temperature shift under setting [1] is -0.182 °C and the melting temperature shift under setting [2] was -0.729 °C. Taken in the same sequence, the figures for RABL3 (UniProt Q5HYI8) were 0.736 °C and -1.66 °C.

Turning to HIST1H1C (UniProt P16403), the melting temperature shift is 1.59 °C under setting [1] and -1.24 °C under setting [2].

For WDR5 (UniProt P61964), the melting temperature shift was -0.0229 °C under setting [1] and 0.66 °C under setting [2]. As to UniProt Q9ULE0, the melting temperature shift under setting [2] was 0.474 °C. With TRIM11 (UniProt Q96F44), under setting [1], the melting temperature shift is -0.496 °C. As to RB1CC1 (UniProt Q8TDY2), the melting temperature shift reads like this: under setting [1], 1.75 °C; under setting [2], -1.96 °C. On the same counts, the results for ABCF3 (UniProt Q9NUQ8) are -0.253 °C and 0.789 °C. Turning to RCHY1 (UniProt Q96PM5), the melting temperature shift under setting [2] is 5.62 °C.

Regarding STX5 (UniProt Q13190), the melting temperature shift runs as follows: under setting [1], 0.15 °C; under setting [2], -1.4 °C.

Take PTCD3 (UniProt Q96EY7): the melting temperature shift runs as follows: under setting [1], -0.721 °C; under setting [2], -1.22 °C.

In the case of SLC3A2 (UniProt P08195), the melting temperature shift reads like this: under setting [1], 1.94 °C; under setting [2], -0.0515 °C.

For UniProt P54826, under setting [2], the melting temperature shift is -0.845 °C.

Source of the values: the supplement of paper PMC10060354, “Discovery of a small molecule ligand of FRS2 that inhibits invasion and tumor growth” (Cellular Oncology, 2022).
